PubChem BioAssay AID1259268, Sanger Institute, 2017

- Aim: 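Kinase silencing that acts in synergy with trametinib, cetuximab or BYL719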 (follow-up of hits)
- Cell system: human SNUC1 colorectal cancer cells
- Reagent: single siRNA against human genes
- Conditions: anchor drugs added a day after transfection: BYL719 1 µM, cetuximab 5 µg/ml or trametinib 10 nM, versus DMSO vehicle
- Detection: 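Mean viability per well relative to non-targeting pool 2 siRNA, plus a synergy score weighing the joint knock-down and drug effect against each effect alone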
- Direction: synergy score with trametinib and synergy score with cetuximab and synergy score with BYL719: higher = stronger synergy of knock-down with drug; viability without drug (DMSO) and viability with trametinib: higher = more viable cells
- Call rule: 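Inactive when no drug gives a synergy score over 0.1, otherwise active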
- Meaning of the calls: active = synergy with at least one drug; inactive = no synergy with any drug
Here is an unselected part of 160 deposited reagents. Of all reagents, 58 (36%) got an active call. 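Trametinib by itself roughly halved viability, making its arm harsher than the cetuximab and BYL719 arms.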 The numbers tell different reagents against one gene apart. Viability is capped at 1. Not given: the amount of reagent, the time to read-out.

gene,reagent no.,synergy score with trametinib,synergy score with cetuximab,synergy score with BYL719,viability without drug (DMSO) (fraction of control),viability with trametinib (fraction of control),Outcome
PFKFB3 (GeneID 5209),1,0.119,0.00166,-0.142,1,0.375,active
PFKFB3 (GeneID 5209),2,0.0546,0.0377,-0.0581,0.968,0.424,inactive
PFKFB3 (GeneID 5209),3,0.0183,0.115,-0.23,1,0.476,active
PFKFB3 (GeneID 5209),4,0.0199,0.0137,-0.252,0.972,0.46,inactive

Single entries from the entries so far:
Result for PFKFB3 (GeneID 5209) #2 in “synergy score with cetuximab”: 0.0377
Value for PFKFB3 (GeneID 5209) #3 in “viability with trametinib (fraction of control)”: 0.476

Additional results follow.
gene,reagent no.,synergy score with trametinib,synergy score with cetuximab,synergy score with BYL719,viability without drug (DMSO) (fraction of control),viability with trametinib (fraction of control),Outcome
MAPKAPK2 (GeneID 9261),1,0.0811,0.0199,-0.204,0.932,0.379,inactive
MAPKAPK2 (GeneID 9261),2,0.211,0.0556,-0.000585,0.912,0.24,active
MAPKAPK2 (GeneID 9261),3,0.0106,-0.103,-0.19,0.854,0.412,inactive
MAPKAPK2 (GeneID 9261),4,-0.0376,0.098,-0.136,0.987,0.525,inactive
EPHA6 (GeneID 285220),1,0.153,-0.0527,-0.172,1,0.341,active
EPHA6 (GeneID 285220),2,-0.0406,-0.0035,-0.0807,0.688,0.38,inactive
EPHA6 (GeneID 285220),3,0.0605,0.0722,0.0146,1,0.434,inactive
EPHA6 (GeneID 285220),4,0.0489,-0.0663,-0.00871,1,0.445,inactive
